Measurements reported in PubChem BioAssay AID652243 (Drosophila RNAi Screening Center, 2013)

Assay: 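Fly genes required for human androgen receptor driven transcription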 (primary screen)
Cell system: Drosophila S2R+ cells
Knock-down reagent: long dsRNA against Drosophila genes
Duration: 72 h (48 h, then 24 h hormone)
Treatment: synthetic androgen R1881 at 10 nM for 24 h
Read-out: 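Firefly light from an androgen-responsive reporter and Renilla control light per well, raw and unnormalised, for each of two replicates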
Direction: firefly reporter light: higher = more light from androgen-responsive reporter; Renilla control light: higher = more constitutive control signal (cell number, transfection)
Rule for the call: 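Across duplicate plates, a knock-down whose log firefly/Renilla ratio shifted a set fold down or up from the GFP/LacZ control mean was a hit; the downward cut appears as both 1.5 and 3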
Calls: active = hit: reporter lowered or raised; inactive = no hit
The screen tested about 24,000 reagents; below is a random part of those that have a named target and a result. In the full data, 246 (1%) were called active. 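Plates not normalised; calls are printed but the firefly/Renilla ratio behind them is not deposited; fold cut for lowering reported inconsistently.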 The raw values are shown without normalisation. The record does not give: the amount of reagent.

CTCF [DRSC11004]: firefly reporter light, replicate 1 = 1.33e6; firefly reporter light, replicate 2 = 8.39e5; Renilla control light, replicate 1 = 9.75e5; Renilla control light, replicate 2 = 1.08e6; Call = inactive
CTCF [DRSC28022]: firefly reporter light, replicate 1 = 9.03e5; firefly reporter light, replicate 2 = 9.38e5; Renilla control light, replicate 1 = 1.49e6; Renilla control light, replicate 2 = 1.58e6; Call = inactive
qtc (quick-to-court) [DRSC02364]: firefly reporter light, replicate 1 = 8.12e5; firefly reporter light, replicate 2 = 9.38e5; Renilla control light, replicate 1 = 1.98e6; Renilla control light, replicate 2 = 2.07e6; Call = inactive
qtc (quick-to-court) [DRSC02365]: firefly reporter light, replicate 1 = 71814; firefly reporter light, replicate 2 = 62861; Renilla control light, replicate 1 = 1.19e6; Renilla control light, replicate 2 = 8.48e5; Call = inactive
qtc (quick-to-court) [DRSC27377]: firefly reporter light, replicate 1 = 3.09e5; firefly reporter light, replicate 2 = 3.97e5; Renilla control light, replicate 1 = 5.85e5; Renilla control light, replicate 2 = 6.93e5; Call = inactive
CG1638 [DRSC15132]: firefly reporter light, replicate 1 = 1.66e5; firefly reporter light, replicate 2 = 1.67e5; Renilla control light, replicate 1 = 2.32e6; Renilla control light, replicate 2 = 2.72e6; Call = inactive
CG1638 [DRSC29986]: firefly reporter light, replicate 1 = 4.43e5; firefly reporter light, replicate 2 = 3.33e5; Renilla control light, replicate 1 = 1.18e6; Renilla control light, replicate 2 = 1.17e6; Call = inactive
PXo (P[[i]]-sensitive XPR1 orthologue) [DRSC09734]: firefly reporter light, replicate 1 = 1.09e6; firefly reporter light, replicate 2 = 1.05e6; Renilla control light, replicate 1 = 2.28e6; Renilla control light, replicate 2 = 2.25e6; Call = inactive
Polr3E (RNA polymerase III subunit E) [DRSC11880]: firefly reporter light, replicate 1 = 1.82e5; firefly reporter light, replicate 2 = 1.66e5; Renilla control light, replicate 1 = 2.50e6; Renilla control light, replicate 2 = 2.05e6; Call = inactive
Polr3E (RNA polymerase III subunit E) [DRSC23914]: firefly reporter light, replicate 1 = 1.07e6; firefly reporter light, replicate 2 = 6.84e5; Renilla control light, replicate 1 = 1.18e6; Renilla control light, replicate 2 = 5.63e5; Call = inactive
CG13999 [DRSC02331]: firefly reporter light, replicate 1 = 1.48e5; firefly reporter light, replicate 2 = 1.99e5; Renilla control light, replicate 1 = 1.00e6; Renilla control light, replicate 2 = 1.32e6; Call = inactive
CG13999 [DRSC29521]: firefly reporter light, replicate 1 = 4.25e5; firefly reporter light, replicate 2 = 4.14e5; Renilla control light, replicate 1 = 7.65e5; Renilla control light, replicate 2 = 7.65e5; Call = inactive
CG4935 [DRSC01924]: firefly reporter light, replicate 1 = 1.13e5; firefly reporter light, replicate 2 = 1.29e5; Renilla control light, replicate 1 = 1.12e6; Renilla control light, replicate 2 = 1.42e6; Call = inactive
U3-55K (U3 small nuclear riboprotein factor 55K) [DRSC05982]: firefly reporter light, replicate 1 = 64918; firefly reporter light, replicate 2 = 1.35e5; Renilla control light, replicate 1 = 1.49e6; Renilla control light, replicate 2 = 1.49e6; Call = inactive
U3-55K (U3 small nuclear riboprotein factor 55K) [DRSC29090]: firefly reporter light, replicate 1 = 4.63e5; firefly reporter light, replicate 2 = 3.61e5; Renilla control light, replicate 1 = 1.23e6; Renilla control light, replicate 2 = 1.40e6; Call = inactive
luna [DRSC05253]: firefly reporter light, replicate 1 = 2.02e5; firefly reporter light, replicate 2 = 1.80e5; Renilla control light, replicate 1 = 6.60e5; Renilla control light, replicate 2 = 6.03e5; Call = inactive
luna [DRSC24992]: firefly reporter light, replicate 1 = 2.96e5; firefly reporter light, replicate 2 = 3.61e5; Renilla control light, replicate 1 = 5.49e5; Renilla control light, replicate 2 = 5.86e5; Call = inactive
htt (huntingtin) [DRSC16970]: firefly reporter light, replicate 1 = 1.73e5; firefly reporter light, replicate 2 = 1.59e5; Renilla control light, replicate 1 = 1.62e6; Renilla control light, replicate 2 = 1.69e6; Call = inactive
CG1523 [DRSC15033]: firefly reporter light, replicate 1 = 1.46e5; firefly reporter light, replicate 2 = 60079; Renilla control light, replicate 1 = 7.79e5; Renilla control light, replicate 2 = 5.52e5; Call = inactive
CG1523 [DRSC26315]: firefly reporter light, replicate 1 = 3.61e5; firefly reporter light, replicate 2 = 2.62e5; Renilla control light, replicate 1 = 8.09e5; Renilla control light, replicate 2 = 6.75e5; Call = inactive
Nipsnap [DRSC20169]: firefly reporter light, replicate 1 = 69961; firefly reporter light, replicate 2 = 72621; Renilla control light, replicate 1 = 6.70e5; Renilla control light, replicate 2 = 7.94e5; Call = inactive
CG8249 [DRSC07125]: firefly reporter light, replicate 1 = 46376; firefly reporter light, replicate 2 = 56354; Renilla control light, replicate 1 = 1.28e6; Renilla control light, replicate 2 = 1.28e6; Call = inactive
Acyp2 (Acylphosphatase 2) [DRSC15336]: firefly reporter light, replicate 1 = 1.73e5; firefly reporter light, replicate 2 = 2.13e5; Renilla control light, replicate 1 = 2.13e6; Renilla control light, replicate 2 = 2.79e6; Call = inactive
CG31141 [DRSC13646]: firefly reporter light, replicate 1 = 1.07e5; firefly reporter light, replicate 2 = 78590; Renilla control light, replicate 1 = 2.19e5; Renilla control light, replicate 2 = 3.53e5; Call = inactive
CG31141 [DRSC29508]: firefly reporter light, replicate 1 = 3.11e5; firefly reporter light, replicate 2 = 2.75e5; Renilla control light, replicate 1 = 1.09e6; Renilla control light, replicate 2 = 1.09e6; Call = inactive
CG12219 [DRSC17829]: firefly reporter light, replicate 1 = 3.30e5; firefly reporter light, replicate 2 = 3.26e5; Renilla control light, replicate 1 = 4.06e6; Renilla control light, replicate 2 = 3.97e6; Call = inactive
CG12219 [DRSC24690]: firefly reporter light, replicate 1 = 1.06e6; firefly reporter light, replicate 2 = 1.18e6; Renilla control light, replicate 1 = 1.25e6; Renilla control light, replicate 2 = 1.52e6; Call = inactive

Records above whose gene name begins with Q or q (3):
qtc (quick-to-court) [DRSC02364]: firefly reporter light, replicate 1 = 8.12e5; firefly reporter light, replicate 2 = 9.38e5; Renilla control light, replicate 1 = 1.98e6; Renilla control light, replicate 2 = 2.07e6; Call = inactive
qtc (quick-to-court) [DRSC02365]: firefly reporter light, replicate 1 = 71814; firefly reporter light, replicate 2 = 62861; Renilla control light, replicate 1 = 1.19e6; Renilla control light, replicate 2 = 8.48e5; Call = inactive
qtc (quick-to-court) [DRSC27377]: firefly reporter light, replicate 1 = 3.09e5; firefly reporter light, replicate 2 = 3.97e5; Renilla control light, replicate 1 = 5.85e5; Renilla control light, replicate 2 = 6.93e5; Call = inactive
